Binding data for one substance are collected here from paper PMC10850815.

Amino acid sequences for entries named in this document (tags omitted). Residues count along the entry.
UniProt Q9NZQ7, residues 19-290: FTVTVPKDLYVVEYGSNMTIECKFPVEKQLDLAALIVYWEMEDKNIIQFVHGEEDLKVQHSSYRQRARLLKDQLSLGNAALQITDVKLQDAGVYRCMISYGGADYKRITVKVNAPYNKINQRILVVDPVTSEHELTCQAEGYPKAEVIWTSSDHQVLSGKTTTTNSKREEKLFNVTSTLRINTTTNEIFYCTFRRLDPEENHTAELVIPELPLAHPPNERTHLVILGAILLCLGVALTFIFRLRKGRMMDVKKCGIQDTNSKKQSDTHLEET
UniProt P08670: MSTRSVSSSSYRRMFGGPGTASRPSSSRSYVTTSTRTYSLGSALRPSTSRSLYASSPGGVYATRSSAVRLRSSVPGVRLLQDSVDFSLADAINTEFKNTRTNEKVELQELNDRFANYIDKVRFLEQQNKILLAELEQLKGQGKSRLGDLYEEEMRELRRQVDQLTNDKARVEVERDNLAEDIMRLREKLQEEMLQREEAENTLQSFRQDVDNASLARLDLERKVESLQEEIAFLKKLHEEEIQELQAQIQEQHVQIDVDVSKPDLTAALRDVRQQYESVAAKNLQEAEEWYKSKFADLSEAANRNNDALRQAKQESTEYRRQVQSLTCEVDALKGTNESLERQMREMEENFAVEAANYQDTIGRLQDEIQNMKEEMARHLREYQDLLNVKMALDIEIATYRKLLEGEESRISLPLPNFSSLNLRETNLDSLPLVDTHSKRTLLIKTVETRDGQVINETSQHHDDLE

No constants are given. Whether binding was seen depends on the method and setting. Binding seen in cells or lysates may run through a third protein. Some binding calls cover weakened binding; strength is not graded here.

The assay concerns the target programmed cell death 1 ligand 1 (PD‐L1) (human (endogenous in PCI 52 and FaDu)) (UniProt Q9NZQ7). Put plainly: proximity ligation; Duolink PLA in PCI 52 cells fixed with 4% PFA and permeabilized with 0.1% Triton X‐100; anti‐PD‐L1 (rabbit, E1L3N) and anti‐vimentin (mouse, ab8978); cells synchronized in G1, S or G2/M phase with cell cycle inhibitors; IgG isotype controls.

In the case of vimentin (from UniProt P08670 1-466), the binding entry was “binds”.
